Test results from PubChem BioAssay AID264 (DTP/NCI, 2004).
The list is a part of this screen's results and no random one: it is rich in T/C values a quarter to a half above the control, in often repeated tests (any T/C) and in doses without a T/C. Further doses and runs are listed elsewhere. T/C gives the treated animals as a percentage of the vehicle group. Schedule codes are those of the source, read here as Q, the interval in days (D) or hours (H), X, the number of doses. Some T/C values are followed by the survivors on the day toxicity was checked, most often the fifth; without a count, all were alive then. Some T/C values are negative: the treated tumours shrank. Some entries hold several experiments; their values stand side by side, smallest first. Some entries give survivors of the animals treated and no T/C: the source holds a T/C of zero for them, seemingly a mark for toxic or unscored doses. Survivors were counted at the toxicity check, usually on the fifth day, unless a day is given; later deaths do not show.

System: nude mice, LX-1 lung xenograft intrarenal, tumor weight T/C
Assay: NCI In Vivo Anticancer Drug Screen. Data for tumor model Human Lung LX-1 Xenograft (intrarenal inoculation) in NU/NU Swiss (nude) mice
Settings: T/C endpoint: mean tumor weight change, higher T/C = larger tumour; for T/C: evaluated on day 11
Summary of the method: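 In vivo, transplantable tumor; compound vs vehicle arms; tumor size measured; value = T/C.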

[1] = dose: 12.0 mg/kg/injection, schedule: Q01DX010 (sc), vehicle: water
[2] = dose: 2400.0 mg/kg/injection, schedule: Q04DX003 (sc), vehicle: Klucel (hydroxypropylcellulose) (HPC)
[3] = dose: 300.0 mg/kg/injection, schedule: Q04DX003 (sc), vehicle: saline
[4] = dose: 600.0 mg/kg/injection, schedule: Q04DX003 (sc), vehicle: saline
[5] = dose: 300.0 mg/kg/injection, schedule: Q04DX003 (sc), vehicle: saline with Tween-80
[6] = dose: 600.0 mg/kg/injection, schedule: Q04DX003 (sc), vehicle: saline with Tween-80

Cc1cc2c(c3oc(C4(C)OC4C4OC4C)cc(=O)c13)C(=O)c1c(O)c(C3CC(C)(N(C)C)C(O)C(C)O3)cc(C3CC(N(C)C)C(O)C(C)O3)c1C2=O (configuration not stated)
survivor count (dose: 0.13 mg/kg/injection, schedule: Q01DX010 (sc), vehicle: saline): 1 of 3 on day 11
survivor count (dose: 0.25 mg/kg/injection, schedule: Q01DX010 (sc), vehicle: saline): 0 of 3 on day 11

CC(=O)c1c(O)c(C)c(O)c2c1OC1=CC(=O)C(C(C)=O)C(=O)C12C (configuration not stated)
survivor count (dose: 400.0 mg/kg/injection, schedule: Q01DX010 (sc), vehicle: sodium bicarbonate): 1 of 3 on day 11
survivor count (dose: 800.0 mg/kg/injection, schedule: Q01DX010 (sc), vehicle: sodium bicarbonate): 0 of 3 on day 11

COC1C(/C=C/C(C)=O)OC2OC(C)(C)OC21 (configuration not stated)
survivor count (dose: 600.0 mg/kg/injection, schedule: Q04DX003 (sc), vehicle: suspension in saline): 0 of 6 on day 11

CN(C)N=Nc1ccc(S(N)(=O)=O)cc1
survivor count (dose: 800.0 mg/kg/injection, schedule: Q01DX010 (sc), vehicle: Klucel (hydroxypropylcellulose) (HPC)): 0 of 6 on day 11 and 3 of 6 on day 11

C=C(C)C(=NC(C)(C)C)Nc1ccccc1
T/C (dose: 100.0 mg/kg/injection, schedule: Q04DX003 (sc), vehicle: saline with Tween-80): 137 % of control
survivor count (dose: 400.0 mg/kg/injection, schedule: Q04DX003 (sc), vehicle: saline with Tween-80): 3 of 5 on day 11

Cc1ccc2c(c1)N=C(Nc1ccccc1)N=S2(C)=O (configuration not stated)
survivor count (dose: 50.0 mg/kg/injection, schedule: Q04DX003 (sc), vehicle: saline with Tween-80): 3 of 5 on day 11

O=C1N[C@@H]([C@H]2CC[C@H](Cl)CN2)C(=O)N[C@H]1[C@H]1CC[C@H](Cl)CN1
T/C (dose: 2.5 mg/kg/injection, schedule: Q01DX010 (sc), vehicle: water): 125 % of control [2 of 2 alive on day 11]
survivor count (dose: 10.0 mg/kg/injection, schedule: Q01DX010 (sc), vehicle: water): 0 of 2 on day 11
survivor count (dose: 20.0 mg/kg/injection, schedule: Q01DX010 (sc), vehicle: water): 0 of 2 on day 11
survivor count (dose: 20.0 mg/kg/injection, schedule: Q04DX003 (sc), vehicle: water): 3 of 6 on day 11
survivor count (dose: 40.0 mg/kg/injection, schedule: Q04DX003 (sc), vehicle: water): 3 of 6 on day 11

CC(=O)O[C@@H]1CO[C@H]2O[C@H]3[C@@H](C(C=O)=C[C@H](O)[C@@H]4C5=C(C(C)C)CC[C@]5(C)CC[C@@]34C)[C@@]2(O)C1=O
survivor count (dose: 100.0 mg/kg/injection, schedule: Q04DX003 (sc), vehicle: Klucel (hydroxypropylcellulose) (HPC)): 3 of 6 on day 11
survivor count (dose: 400.0 mg/kg/injection, schedule: Q04DX003 (sc), vehicle: Klucel (hydroxypropylcellulose) (HPC)): 3 of 6 on day 11

CC(=O)OC(C)C1C2=C(C(=O)CC1(C)O)C(=O)c1c(ccc(-c3ccc4c(c3O)C(=O)C3=C(C4=O)C(C(C)OC(C)=O)C(C)(O)CC3=O)c1O)C2=O (configuration not stated)
survivor count (dose: 60.0 mg/kg/injection, schedule: Q04DX003 (sc), vehicle: saline with Tween-80): 3 of 5 on day 11

Cc1c(N)nc(C(CC(N)=O)NCC(N)C(N)=O)nc1C(=O)NC(C(=O)NC(C)C(O)C(C)C(=O)NC(C(=O)NCCc1nc(-c2nc(C(=O)NCCCNCCCc3ccccn3)cs2)cs1)C(C)O)C(OC1OC(CO)C(O)C(O)C1OC1OC(CO)C(O)C(OC(N)=O)C1O)c1cnc[nH]1 (configuration not stated)
T/C [1]: 127 % of control
survivor count [1]: 1 of 3 on day 11
survivor count (dose: 48.0 mg/kg/injection, schedule: Q01DX010 (sc), vehicle: water): 0 of 3 on day 11 and 1 of 3 on day 11

Cn1cc(C2NC(=O)c3ccccc3N2)c2ccccc21 (configuration not stated)
survivor count [2]: 0 of 6 on day 11

Clc1ccc(C2SC=Cc3ccccc32)cc1 (configuration not stated)
survivor count [2]: 3 of 6 on day 11

Cc1cc(N(CC(C)Br)CC(C)Br)ccc1N=Nc1ccccc1C(=O)O (configuration not stated)
T/C (dose: 12.5 mg/kg/injection, schedule: Q01DX010 (sc), vehicle: saline with Tween-80): 138 % of control [2 of 3 alive on day 11]
survivor count (dose: 25.0 mg/kg/injection, schedule: Q01DX010 (sc), vehicle: saline with Tween-80): 0 of 3 on day 11

COc1cc(NCCCCCCCNC(C)C)c2nccc(C)c2c1
T/C (dose: 75.0 mg/kg/injection, schedule: Q04DX003 (sc), vehicle: saline): 136 % of control [5 of 6 alive on day 11]
survivor count [3]: 0 of 6 on day 11

CCC[CH2][Hg][Cl]
survivor count (dose: 75.0 mg/kg/injection, schedule: Q04DX003 (sc), vehicle: Klucel (hydroxypropylcellulose) (HPC)): 2 of 6 on day 11
survivor count (dose: 150.0 mg/kg/injection, schedule: Q04DX003 (sc), vehicle: Klucel (hydroxypropylcellulose) (HPC)): 1 of 6 on day 11

c1ccc(CN2CCOC2)cc1
T/C (dose: 25.0 mg/kg/injection, schedule: Q01DX010 (sc), vehicle: saline): 141 % of control
T/C (dose: 200.0 mg/kg/injection, schedule: Q01DX010 (sc), vehicle: saline): 149 % of control

OCCOCC(F)(F)F
T/C [4]: 126 % of control
survivor count (dose: 4800.0 mg/kg/injection, schedule: Q04DX003 (sc), vehicle: saline): 0 of 6 on day 11

CC1=C[S+](c2ccccc2)c2cccc3cc4ccccc4c1c23 (configuration not stated)
T/C (dose: 4.0 mg/kg/injection, schedule: Q04DX003 (sc), vehicle: saline with Tween-80): 127 % of control
T/C (dose: 8.0 mg/kg/injection, schedule: Q04DX003 (sc), vehicle: saline with Tween-80): 126 % of control
T/C (dose: 16.0 mg/kg/injection, schedule: Q04DX003 (sc), vehicle: saline with Tween-80): 142 % of control

CSC(SC)=C1C(=O)NC(=O)NC1=O
survivor count (dose: 1200.0 mg/kg/injection, schedule: Q04DX003 (sc), vehicle: suspension in saline): 1 of 6 on day 11

Cn1c2nc(=O)n(-c3ccccc3)c(=O)c-2nc2c1CCCC2
survivor count [5]: 1 of 6 on day 11
survivor count [6]: 0 of 6 on day 11

O=C(O)CCCc1ccc(N(CCCl)CCCl)cc1
survivor count (dose: 16.0 mg/kg/injection, schedule: Q01DX010 (sc), vehicle: saline with Tween-80): 1 of 3 on day 11
survivor count (dose: 32.0 mg/kg/injection, schedule: Q01DX010 (sc), vehicle: saline with Tween-80): 0 of 3 on day 11

C[CH2][Ge]1([CH2]C)[CH2]CC2(CCN(CCCN(C)C)C2)C[CH2]1
survivor count [3]: 0 of 6 on day 11
survivor count [4]: 0 of 6 on day 11
survivor count (dose: 1200.0 mg/kg/injection, schedule: Q04DX003 (sc), vehicle: saline): 0 of 6 on day 11

COc1cccc2c1C(=O)c1c(O)c3c(c(O)c1C2=O)CC(O)(/C(C)=N/NC(=O)CCCCC(=O)N/N=C(\C)C1(O)Cc2c(O)c4c(c(O)c2C(OC2CC(N)C(O)C(C)O2)C1)C(=O)c1c(OC)cccc1C4=O)CC3OC1CC(N)C(O)C(C)O1 (configuration not stated)
T/C (dose: 25.0 mg/kg/injection, schedule: Q04DX003 (sc), vehicle: water): 38, 41, 71, 77 % of control
T/C (dose: 50.0 mg/kg/injection, schedule: Q04DX003 (sc), vehicle: water): -61, 20, 33 [4 of 6 alive on day 11], 65 % of control
survivor count (dose: 75.0 mg/kg/injection, schedule: Q04DX003 (sc), vehicle: water): 3 of 6 on day 11
survivor count (dose: 100.0 mg/kg/injection, schedule: Q04DX003 (sc), vehicle: water): 0 of 5 on day 11 and 0 of 6 on day 11
survivor count (dose: 200.0 mg/kg/injection, schedule: Q04DX003 (sc), vehicle: water): 0 of 6 on day 11

C=CCNc1nc2c(s1)CCc1cc(OC)c(OC)cc1-2
T/C [5]: 128 % of control
survivor count [6]: 3 of 6 on day 11
survivor count (dose: 1200.0 mg/kg/injection, schedule: Q04DX003 (sc), vehicle: saline with Tween-80): 3 of 6 on day 11

COc1ccc(-c2cc(C(=O)Nc3cc(C(F)(F)F)cc(C(F)(F)F)c3)c3ccccc3n2)cc1
survivor count (dose: 1200.0 mg/kg/injection, schedule: Q04DX003 (ip), vehicle: DMSO): 3 of 6 on day 11
